Measurements reported in PMC4751553.
Results are given in words; binding and its absence hold for the method and conditions named. Binding seen in cells or lysates may run through a third protein. Binding calls can cover weak binding; strength is not graded here. Sequences can lack the tags named with a protein.

The chains behind the UniProt entries cited, without tags or fusion partners. Where a name states a change or a piece, a line headed by the entry shows the natural chain unless it says otherwise.
UniProt Q05670: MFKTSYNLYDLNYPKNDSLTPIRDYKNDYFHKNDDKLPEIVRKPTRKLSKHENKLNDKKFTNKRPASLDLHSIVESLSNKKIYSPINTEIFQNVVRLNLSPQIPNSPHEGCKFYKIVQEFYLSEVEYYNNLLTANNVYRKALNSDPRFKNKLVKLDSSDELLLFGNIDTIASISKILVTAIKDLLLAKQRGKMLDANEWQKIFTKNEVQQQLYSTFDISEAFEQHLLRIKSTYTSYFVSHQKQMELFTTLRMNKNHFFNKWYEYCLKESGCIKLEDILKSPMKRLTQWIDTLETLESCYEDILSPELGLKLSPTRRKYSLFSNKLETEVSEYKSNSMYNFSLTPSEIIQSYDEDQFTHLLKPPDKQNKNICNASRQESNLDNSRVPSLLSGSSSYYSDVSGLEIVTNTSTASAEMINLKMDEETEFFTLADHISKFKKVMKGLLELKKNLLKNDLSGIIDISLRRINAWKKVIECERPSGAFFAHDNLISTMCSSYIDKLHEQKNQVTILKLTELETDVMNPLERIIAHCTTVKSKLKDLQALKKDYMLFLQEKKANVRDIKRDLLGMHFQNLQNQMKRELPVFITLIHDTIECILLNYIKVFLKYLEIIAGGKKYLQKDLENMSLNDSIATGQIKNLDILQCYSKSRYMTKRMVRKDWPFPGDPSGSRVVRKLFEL

Target: T1, Rvs161p tagged with an internal FLAG tag inserted after amino acid 85 (wild type) (S. cerevisiae) (UniProt P25343)
T1 sequence: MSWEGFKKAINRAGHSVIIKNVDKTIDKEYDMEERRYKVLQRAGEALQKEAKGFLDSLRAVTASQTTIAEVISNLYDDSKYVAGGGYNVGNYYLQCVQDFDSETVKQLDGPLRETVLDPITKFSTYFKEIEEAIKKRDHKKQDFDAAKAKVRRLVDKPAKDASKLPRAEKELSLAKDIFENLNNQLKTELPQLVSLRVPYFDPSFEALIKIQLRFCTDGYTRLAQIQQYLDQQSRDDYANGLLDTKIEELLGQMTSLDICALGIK
Experiment: co-IP; lysates of pheromone-induced S. cerevisiae (galactose medium, 10 μg/ml pheromone, 2 hr); Rvs161p-FLAG held on anti-FLAG M2 affinity gel, 1 hr at 4°, 50 mM Tris pH 7.4, 150 mM NaCl, 0.5% Triton X-100; bound Fus2p-GFP detected by western blot with anti-GFP

Q: How did the binding turn out when “Fus2p^1–670 (GFP-tagged C-terminal truncation) (from UniProt Q05670) (domain or fragment)” was run?
A: binds
